PubChem BioAssay AID1259308, NCATS, 2017
In all, the deposit lists about 59,000 reagents; shown is a part drawn at random. About 1,510 of them (2.6%) count as active. 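Calls use total luciferase alone and ignore viability, so some active siRNAs may act by altering cell number.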 The numbers tell different reagents against one gene apart. Further read-outs or replicates are left out here.

- Aim: 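Candidate targets for better recombinant protein yield in mammalian cells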 (primary screen)
- Cell system: human HEK293 embryonic kidney cells stably expressing firefly luciferase (HEK-CMV-Luc2-Hygro)
- Reagents: single siRNA against human genes, 0.8 pmol siRNA per well
- Time to read-out: 72 h
- Detection: 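Reporter luminescence and viable-cell signal on separate replicate plates, given as percent of non-targeting control and median/MAD z-scores, plus per-cell luciferase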
- Reading the numbers: total luciferase, z-score: higher = more reporter protein produced
- Active means: 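Active when the median/MAD z-score for overall luciferase is greater than 3; a gene was taken forward for validation with new siRNAs if at least two of its three siRNAs passed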
- Meaning of the calls: active = raised luciferase; inactive = no rise

ADCY8 #1: total luciferase, z-score = -0.546; Outcome = inactive
ADCY8 #2: total luciferase, z-score = 0.154; Outcome = inactive
ADCY8 #3: total luciferase, z-score = 1.35; Outcome = inactive
ARAP1 #1: total luciferase, z-score = -1.98; Outcome = inactive
ARAP1 #2: total luciferase, z-score = -0.233; Outcome = inactive
ARAP1 #3: total luciferase, z-score = 0.621; Outcome = inactive
HERPUD1 #1: total luciferase, z-score = 0.736; Outcome = inactive
HERPUD1 #2: total luciferase, z-score = -0.369; Outcome = inactive
HERPUD1 #3: total luciferase, z-score = 0.045; Outcome = inactive
TIPRL #1: total luciferase, z-score = 1.03; Outcome = inactive
TIPRL #2: total luciferase, z-score = -0.00894; Outcome = inactive
TIPRL #3: total luciferase, z-score = 0.241; Outcome = inactive
GNB4 #1: total luciferase, z-score = -0.341; Outcome = inactive
GNB4 #2: total luciferase, z-score = -0.274; Outcome = inactive
GNB4 #3: total luciferase, z-score = -1.11; Outcome = inactive
H2AC17 #1: total luciferase, z-score = -2.24; Outcome = inactive
H2AC17 #2: total luciferase, z-score = 4.64; Outcome = active
H2AC17 #3: total luciferase, z-score = -1.04; Outcome = inactive
GNPTAB #1: total luciferase, z-score = -0.225; Outcome = inactive
GNPTAB #2: total luciferase, z-score = 0.596; Outcome = inactive
GNPTAB #3: total luciferase, z-score = -0.501; Outcome = inactive
OOSP1 #1: total luciferase, z-score = 0.108; Outcome = inactive
OOSP1 #2: total luciferase, z-score = -0.474; Outcome = inactive
OOSP1 #3: total luciferase, z-score = 0.0607; Outcome = inactive
RPS15AP25 #1: total luciferase, z-score = 0.763; Outcome = inactive
RPS15AP25 #2: total luciferase, z-score = -0.712; Outcome = inactive
RPS15AP25 #3: total luciferase, z-score = 0.0928; Outcome = inactive
SNN #1: total luciferase, z-score = 0.14; Outcome = inactive
SNN #2: total luciferase, z-score = 0.661; Outcome = inactive
SNN #3: total luciferase, z-score = 1.17; Outcome = inactive
PPM1D #1: total luciferase, z-score = 0.348; Outcome = inactive
PPM1D #2: total luciferase, z-score = -1.13; Outcome = inactive
PPM1D #3: total luciferase, z-score = -0.85; Outcome = inactive

Entries listed so far whose target name starts with A or a:
ADCY8 #1: total luciferase, z-score = -0.546; Outcome = inactive
ADCY8 #2: total luciferase, z-score = 0.154; Outcome = inactive
ADCY8 #3: total luciferase, z-score = 1.35; Outcome = inactive
ARAP1 #1: total luciferase, z-score = -1.98; Outcome = inactive
ARAP1 #2: total luciferase, z-score = -0.233; Outcome = inactive
ARAP1 #3: total luciferase, z-score = 0.621; Outcome = inactive
